# The list shows a part of the results. Further columns of the screen follow, without active or inactive calls. Most of these compounds were active or inconclusive in the main read-out, so they are no random draw. Words in brackets tell the shape of the fitted curve; partial curves, single points and poor fits give uncertain potencies.
# Assay: IkB Signaling
# Conditions: ABC-DLBCL IkBa-CBG/CBR dual luciferase ratio (green luciferase fused to IkBa over red control in OCI-Ly3 lymphoma cells), 4 h
# In short: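 In this assay, an IκBα–CBG68 fusion accumulates when IKK-driven degradation is blocked; native CBR normalizes for cell number. OCI-Ly3 cells were treated 4 h with compound and doxycycline, then green and red light read after Chroma-Glo addition.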
# [1] = measured here: control luc red channel unless noted
# [2] = measured here: IkB-luc green channel
# [3] = measured here: control luc red channel
smiles,measurement,setting,value
CCSc1ncc(Cl)c(C(=O)N(Cc2ccccc2)Cc2ccco2)n1,AC50,[1],"20 µM [falling, single point]"
CC(=O)c1ccc(N2CCN(C(=O)c3cc4ccc5cccnc5c4[nH]3)CC2)cc1,AC50,[1],"25.1 µM [falling, single point]"
CCc1nn(CC(=O)N2CCN(c3ccc(Cl)cc3)CC2)c(=O)c2cc3occc3n12,AC50,[1],"15.8 µM [falling, partial curve]"
CCn1c(=O)n(-c2cccc(Cl)c2)c(=O)c2sc3ccccc3c21,AC50,[1],"1.26 µM [rising, full curve]"
Cc1ccc(C2CC(C(F)(F)F)n3nc(C(=O)NCc4c(C)nn(C)c4C)c(Cl)c3N2)cc1 (centres undefined),AC50,[2],"15.8 µM [falling, partial curve]"
same,AC50,[3],"15.8 µM [falling, partial curve]"
O=C(c1cnc(N2CCCCC2)c2ccccc12)N1CCN(c2ccc(Cl)cc2)CC1,AC50,[1],"31.6 µM [falling, partial curve, poor fit]"
O=C(COC(=O)c1ccc(Oc2ccccc2)cc1)Nc1nnc(-c2ccccc2)o1,AC50,[1],"39.8 µM [falling, single point]"
COc1ccc(CCN2CC(C(=O)NCCc3ccccc3)CC2=O)cc1OC (centres undefined),AC50,[1],"20 µM [rising, partial curve, poor fit]"
COc1ccc(OC)c(/C=C(\C#N)c2nc3ccccc3c(=O)[nH]2)c1,AC50,[1],"0.0501 µM [falling, full curve]"
O=C(CCC(=O)c1ccccc1)Nc1ccc(F)c(Cl)c1,AC50,[1],"39.8 µM [falling, single point]"
Cc1ccc(C)c(S(=O)(=O)NCCc2csc(-c3ccc(Cl)cc3)n2)c1,AC50,[1],"15.8 µM [falling, partial curve]"
Cc1cccc(NC(=O)C2CCCN(S(=O)(=O)c3ccc4c(c3)oc(=O)n4C)C2)c1 (centres undefined),AC50,[1],"15.8 µM [falling, single point]"
O=S(=O)(NCCS(=O)(=O)N1CCN(c2ccccc2)CC1)c1ccc(Cl)cc1,AC50,[1],"0.00631 µM [falling, full curve, poor fit]"
COc1ccccc1CNC(=O)c1ccoc1C,AC50,[1],"15.8 µM [falling, partial curve]"
Cn1c(SCC(=O)Nc2ccccc2)nc(O)cc1=O,AC50,[1],"15.8 µM [falling, partial curve]"
CCOC(=O)c1ccc2c(c1)[C@@H]1C=CC[C@@H]1[C@H](c1cccc(OC)c1OC)N2,AC50,[1],"31.6 µM [falling, single point]"
Cc1ccc(-n2nc3ccc(NC(=O)Cc4ccc(Cl)cc4)cc3n2)cc1,AC50,[1],"0.126 µM [rising, full curve]"
COC(=O)c1sc2cccc(F)c2c1S(=O)(=O)NCc1ccc(Cl)cc1,AC50,[1],"5.01 µM [falling, partial curve]"
COc1ccccc1-c1nnc2sc(COc3ccc(Cl)cc3Cl)nn12,AC50,[1],"25.1 µM [falling, single point]"
Cc1ccc(CSc2ncc(Cl)c(C(=O)Oc3ccc(F)cc3)n2)cc1,AC50,[1],"25.1 µM [falling, single point]"
COc1ccccc1N1CCN(CCCNC(=O)c2cnn(-c3ccc(C)c(C)c3)c2C2CCN(C(=O)OC(C)(C)C)CC2)CC1,AC50,[1],"0.0398 µM [falling, full curve, poor fit]"
CCCCS(=O)(=O)c1oc(-c2ccc(F)cc2)nc1S(=O)(=O)c1ccccc1,AC50,[1],"3.16 µM [falling, full curve]"
O=C(c1ccc2c(c1)N(Cc1ccc(F)cc1)C(=O)c1ccccc1S2(=O)=O)N1CCN(c2ccccn2)CC1,AC50,[1],"0.316 µM [falling, single point]"
COc1ccccc1CNC(=O)c1cnc2c(-c3ccccc3)c(C)nn2c1C,AC50,[1],"31.6 µM [falling, single point]"
O=C(CSc1n[nH]c(-c2ccc(S(=O)(=O)N3CCCCC3)cc2)n1)Nc1nccs1,AC50,[1],"31.6 µM [falling, single point]"
COc1ccc(-c2ccc(NS(=O)(=O)c3ccccc3Cl)cc2)nn1,AC50,[1],"10 µM [falling, partial curve]"
Cc1ccc2c(c1)CCCN2C(=O)c1c(C)noc1C,AC50,[1],"3.16 µM [falling, partial curve]"
O=C1c2ccccc2C(=O)N1CCCCCc1nc(-c2ccccc2)no1,AC50,[1],"15.8 µM [falling, partial curve]"
CCOc1ccc(C(c2c(C)[nH]n(-c3ccccc3)c2=O)c2c(C)[nH]n(-c3ccccc3)c2=O)cc1OC,AC50,[2],"31.6 µM [rising, partial curve]"
same,AC50,[3],"39.8 µM [rising, partial curve]"
COc1ccc(-c2nsc(NC(=O)c3cccc(OC)c3)n2)cc1,AC50,[1],"0.631 µM [falling, full curve]"
CCc1ccc(-c2cn3c(n2)sc2cc(C(=O)NCCCc4ccccc4)ccc23)cc1,AC50,[1],"25.1 µM [falling, single point]"
O=C(Nc1cccc(-c2nc3cc(Cl)ccc3o2)c1)c1ccc(F)cc1,AC50,[1],"20 µM [falling, partial curve, poor fit]"
O=C(Cn1c(=O)n(Cc2ccc(F)cc2)c(=O)c2sc3ccccc3c21)NCc1ccccc1,AC50,[1],"2 µM [rising, partial curve]"
Cc1ccc(C)c(Cn2c(C(C)NC(=O)c3ccccc3)nc3ccccc32)c1 (centres undefined),AC50,[1],"7.94 µM [falling, partial curve]"
COc1cccc(OCc2nc3ccccc3n2C)c1,AC50,[1],"1 µM [rising, full curve]"
O=C(CCn1cnc2onc(-c3ccc(F)cc3)c2c1=O)N1CCN(c2ccccc2)CC1,AC50,[1],"15.8 µM [falling, partial curve]"
O=C(CSC1=Nc2ccccc2C2=NC(Cc3ccccc3)C(=O)N12)Nc1ccccc1 (centres undefined),AC50,[1],"3.16 µM [rising, partial curve]"
CN(Cc1ccccc1)S(=O)(=O)c1ccc(F)c(C(=O)Nc2cc(Cl)cc(Cl)c2)c1,AC50,[1],"25.1 µM [falling, partial curve]"
O=C(Nc1cc(-c2nc3cc(Cl)ccc3o2)ccc1Cl)c1cc2ccccc2o1,AC50,[1],"15.8 µM [falling, partial curve]"
CCc1nn2c(=O)cc(COC(=O)c3cccs3)nc2s1,AC50,[1],"3.98 µM [falling, full curve]"
O=C(Nc1ccc2nn(-c3ccccc3)nc2c1)c1ccc2c(c1)OCCO2,AC50,[1],"2.51 µM [falling, full curve]"
CC(Oc1ccccc1)C(=O)Nc1ccc(C(=O)OCc2cc(=O)n3ccsc3n2)cc1 (centres undefined),AC50,[1],"31.6 µM [falling, single point]"
N#Cc1nc(/C=C/c2ccc(F)cc2)oc1N1CCCCC1,AC50,[1],"10 µM [rising, partial curve]"
Cc1cccc(Nc2cc(C)nc3nc(Cc4ccc(Cl)cc4)nn23)c1,AC50,[1],"31.6 µM [falling, single point]"
CCCOc1ccccc1C(=O)Nc1ccc(-c2nc3ccc(C)cc3s2)cc1,AC50,[1],"0.126 µM [rising, full curve]"
COc1ccc(CNC(=O)c2ccc3c(Cl)c4c(nc3c2)CCCC4)c(OC)c1,AC50,[1],"15.8 µM [falling, partial curve]"
Cc1nc(SCC(=O)Nc2ccc(Cl)cc2C(F)(F)F)[nH]c(=O)c1Cc1ccccc1,AC50,[1],"20 µM [falling, partial curve]"
O=S(=O)(Nc1ccc(-c2ccc(N3CCCC3)nn2)cc1)c1ccccc1Cl,AC50,[1],"12.6 µM [falling, partial curve]"
Cc1ccc(N2CCN(c3nc4ccccc4n4nnnc34)CC2)c(C)c1,AC50,[1],"2 µM [falling, full curve]"
Cc1ccc(Cl)cc1N1CCN(C(=O)c2cnn(-c3ccc(Cl)cc3)c2C2CCNCC2)CC1,AC50,[1],"25.1 µM [falling, single point]"
COc1cccc(C2=NOC(C(=O)Nc3cc(OC)c(OC)c(OC)c3)C2)c1 (centres undefined),AC50,[1],"15.8 µM [falling, partial curve]"
Cc1ccc(CCNC(=O)c2ccc(Cn3c(=O)c4cccn4c4cccnc43)cc2)cc1,AC50,[1],"20 µM [falling, partial curve]"
O=C(COc1cccc(Cl)c1)N1CCC(c2nc3ccccc3s2)CC1,AC50,[1],"31.6 µM [falling, single point]"
Cc1ccccc1Cn1cc(NC(=O)c2cc(-c3ccc(Cl)cc3)on2)cn1,AC50,[1],"0.0631 µM [rising, full curve, poor fit]"
Cc1nc2ncnn2c(N2CCN(C(c3ccccc3)c3ccccc3)CC2)c1C,AC50,[1],"20 µM [falling, partial curve]"
Cc1cccc(NC(=O)CN2C(=O)COc3ccc(S(=O)(=O)Nc4ccccc4)cc32)c1C,AC50,[1],"6.31 µM [rising, full curve, poor fit]"
Cc1ccc(S(=O)(=O)c2nnn3c2nc(NCc2ccc(F)cc2)c2sccc23)cc1C,AC50,[1],"7.94 µM [falling, partial curve]"
Cc1ccc(C(=O)Nc2nccs2)cc1S(=O)(=O)N1CCCCC1,AC50,[1],"15.8 µM [falling, partial curve]"
COC(=O)c1ccc(OC)c(CSc2nnc(COc3ccc(OC)cc3)o2)c1,AC50,[1],"15.8 µM [falling, partial curve]"
CC(=O)c1ccc(NC(=O)/C=C/c2ccc(C)o2)cc1,AC50,[1],"12.6 µM [falling, partial curve]"
O=C(CSc1nc2c([nH]c3ccccc32)c(=O)n1-c1cccc(C(F)(F)F)c1)N1CCCC1,AC50,[1],"15.8 µM [rising, partial curve]"
CCOC(=O)c1cccc(NC(=O)C2(S(=O)(=O)c3ccc(C)cc3)CC2)c1,AC50,[1],"10 µM [falling, partial curve, poor fit]"

# An excerpt from further up, as a working copy:
smiles,measurement,setting,value
Cc1cccc(Nc2cc(C)nc3nc(Cc4ccc(Cl)cc4)nn23)c1,AC50,[1],"31.6 µM [falling, single point]"
CCCOc1ccccc1C(=O)Nc1ccc(-c2nc3ccc(C)cc3s2)cc1,AC50,[1],"0.126 µM [rising, full curve]"
COc1ccc(CNC(=O)c2ccc3c(Cl)c4c(nc3c2)CCCC4)c(OC)c1,AC50,[1],"15.8 µM [falling, partial curve]"
Cc1nc(SCC(=O)Nc2ccc(Cl)cc2C(F)(F)F)[nH]c(=O)c1Cc1ccccc1,AC50,[1],"20 µM [falling, partial curve]"
O=S(=O)(Nc1ccc(-c2ccc(N3CCCC3)nn2)cc1)c1ccccc1Cl,AC50,[1],"12.6 µM [falling, partial curve]"
Cc1ccc(N2CCN(c3nc4ccccc4n4nnnc34)CC2)c(C)c1,AC50,[1],"2 µM [falling, full curve]"
Cc1ccc(Cl)cc1N1CCN(C(=O)c2cnn(-c3ccc(Cl)cc3)c2C2CCNCC2)CC1,AC50,[1],"25.1 µM [falling, single point]"
COc1cccc(C2=NOC(C(=O)Nc3cc(OC)c(OC)c(OC)c3)C2)c1 (centres undefined),AC50,[1],"15.8 µM [falling, partial curve]"
Cc1ccc(CCNC(=O)c2ccc(Cn3c(=O)c4cccn4c4cccnc43)cc2)cc1,AC50,[1],"20 µM [falling, partial curve]"
O=C(COc1cccc(Cl)c1)N1CCC(c2nc3ccccc3s2)CC1,AC50,[1],"31.6 µM [falling, single point]"
Cc1ccccc1Cn1cc(NC(=O)c2cc(-c3ccc(Cl)cc3)on2)cn1,AC50,[1],"0.0631 µM [rising, full curve, poor fit]"
Cc1nc2ncnn2c(N2CCN(C(c3ccccc3)c3ccccc3)CC2)c1C,AC50,[1],"20 µM [falling, partial curve]"
Cc1cccc(NC(=O)CN2C(=O)COc3ccc(S(=O)(=O)Nc4ccccc4)cc32)c1C,AC50,[1],"6.31 µM [rising, full curve, poor fit]"
Cc1ccc(S(=O)(=O)c2nnn3c2nc(NCc2ccc(F)cc2)c2sccc23)cc1C,AC50,[1],"7.94 µM [falling, partial curve]"
Cc1ccc(C(=O)Nc2nccs2)cc1S(=O)(=O)N1CCCCC1,AC50,[1],"15.8 µM [falling, partial curve]"
